The text below walks through data of article doi:10.1101/2025.03.18.643855.

Chains of the proteins cited; added tags and fusions are not shown. Lines headed by an entry give the natural chain unless they say otherwise; changes in a name come on top.
UniProt Q12888: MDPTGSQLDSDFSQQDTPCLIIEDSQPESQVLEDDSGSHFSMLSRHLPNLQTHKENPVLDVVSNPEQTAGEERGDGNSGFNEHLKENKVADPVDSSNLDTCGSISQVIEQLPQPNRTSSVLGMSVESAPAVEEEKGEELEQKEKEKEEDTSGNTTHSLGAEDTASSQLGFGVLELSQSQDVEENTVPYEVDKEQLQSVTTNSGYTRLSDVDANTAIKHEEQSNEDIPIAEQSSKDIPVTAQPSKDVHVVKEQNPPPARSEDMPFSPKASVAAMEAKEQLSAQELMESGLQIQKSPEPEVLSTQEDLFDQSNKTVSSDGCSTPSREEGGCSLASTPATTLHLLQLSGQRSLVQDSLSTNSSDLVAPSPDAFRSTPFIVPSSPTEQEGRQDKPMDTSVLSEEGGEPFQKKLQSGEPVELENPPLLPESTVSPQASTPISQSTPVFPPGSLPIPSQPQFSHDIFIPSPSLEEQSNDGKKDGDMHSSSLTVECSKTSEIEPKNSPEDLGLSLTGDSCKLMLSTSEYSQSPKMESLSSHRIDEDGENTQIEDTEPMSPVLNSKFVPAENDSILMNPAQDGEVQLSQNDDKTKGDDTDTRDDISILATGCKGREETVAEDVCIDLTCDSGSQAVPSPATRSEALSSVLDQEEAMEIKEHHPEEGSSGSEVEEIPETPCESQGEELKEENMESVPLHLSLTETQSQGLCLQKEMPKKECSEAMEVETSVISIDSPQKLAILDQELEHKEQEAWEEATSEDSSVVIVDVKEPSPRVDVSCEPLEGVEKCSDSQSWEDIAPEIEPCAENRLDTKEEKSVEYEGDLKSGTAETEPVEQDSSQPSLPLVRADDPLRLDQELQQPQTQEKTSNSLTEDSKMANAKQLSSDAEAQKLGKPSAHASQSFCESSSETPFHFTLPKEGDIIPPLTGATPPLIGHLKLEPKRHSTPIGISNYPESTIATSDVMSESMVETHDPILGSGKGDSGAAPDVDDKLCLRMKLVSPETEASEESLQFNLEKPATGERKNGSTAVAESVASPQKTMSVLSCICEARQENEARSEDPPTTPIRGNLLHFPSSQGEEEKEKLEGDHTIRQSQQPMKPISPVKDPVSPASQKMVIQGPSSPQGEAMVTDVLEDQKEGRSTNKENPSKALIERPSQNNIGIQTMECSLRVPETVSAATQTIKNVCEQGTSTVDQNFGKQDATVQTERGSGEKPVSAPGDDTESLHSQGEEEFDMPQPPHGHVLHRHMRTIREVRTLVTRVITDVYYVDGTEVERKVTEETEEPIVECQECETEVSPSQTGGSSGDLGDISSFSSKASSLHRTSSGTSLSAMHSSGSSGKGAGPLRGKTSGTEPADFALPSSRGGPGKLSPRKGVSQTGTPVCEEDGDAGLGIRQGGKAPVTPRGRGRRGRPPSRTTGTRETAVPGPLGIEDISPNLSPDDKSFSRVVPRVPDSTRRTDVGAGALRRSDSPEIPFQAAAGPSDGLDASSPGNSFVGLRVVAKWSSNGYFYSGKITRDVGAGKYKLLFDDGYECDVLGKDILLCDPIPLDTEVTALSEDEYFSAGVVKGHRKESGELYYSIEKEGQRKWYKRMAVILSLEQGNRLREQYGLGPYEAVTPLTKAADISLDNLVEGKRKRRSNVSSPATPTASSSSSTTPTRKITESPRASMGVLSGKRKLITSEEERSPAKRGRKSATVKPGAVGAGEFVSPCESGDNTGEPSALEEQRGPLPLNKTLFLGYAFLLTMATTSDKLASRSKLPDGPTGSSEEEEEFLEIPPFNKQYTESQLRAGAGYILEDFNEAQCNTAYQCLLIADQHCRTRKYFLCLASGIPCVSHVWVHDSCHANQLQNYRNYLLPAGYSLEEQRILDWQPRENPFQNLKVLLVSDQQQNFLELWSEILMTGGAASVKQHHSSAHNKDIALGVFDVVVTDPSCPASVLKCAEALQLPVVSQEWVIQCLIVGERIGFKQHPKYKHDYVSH

The target in this test is FLAG-53BP1 ΔMFF (human) (UniProt Q12888). In words: co-IP; FLAG-53BP1 WT, ΔMFF or IEDI_AAAA transfected in HEK293T, MLN4924 3 h; immunoprecipitation and blot for GMCL1.

These are yes or no findings as the source states them, for the method shown. In cells and extracts the contact can be indirect.

B1: endogenous GMCL1, HEK293T (protein, UniProt Q96IK5 1-515)
chain: MGSLSSRVLRQPRPALAQQAQGARAGGSARRPDTGDDAAGHGFCYCAGSHKRKRSSGSFCYCHPDSETDEDEEEGDEQQRLLNTPRRKKLKSTSKYIYQTLFLNGENSDIKICALGEEWSLHKIYLCQSGYFSSMFSGSWKESSMNIIELEIPDQNIDVEALQVAFGSLYRDDVLIKPSRVVAILAAACLLQLDGLIQQCGETMKETVNVKTVCGYYTSAGTYGLDSVKKKCLEWLLNNLMTHQNVELFKELSINVMKQLIGSSNLFVMQVEMDIYTALKKWMFLQLVPSWNGSLKQLLTETDVWFSKQRKDFEGMAFLETEQGKPFVSVFRHLRLQYIISDLASARIIEQDAVVPSEWLSSVYKQQWFAMLRAEQDSEVGPQEINKEELEGNSMRCGRKLAKDGEYCWRWTGFNFGFDLLVTYTNRYIIFKRNTLNQPCSGSVSLQPRRSIAFRLRLASFDSSGKLICSRTTGYQILTLEKDQEQVVMNLDSRLLIFPLYICCNFLYISPEKKN
As to B1, the binding entry was “no binding”.
